Measurements reported in article PMC12040169 (PLOS Biology, 2025).
This is one part of the list.

tested on: T1, CTL2-GFP (C. trachomatis L2/434/Bu, GFP-expressing); parameters: species or system HeLa; Intracellular C. trachomatis growth in HeLa cells, bulk GFP fluorescence relative to DMSO; settings: bulk GFP, single well; 28.5 h, 10 µM; inhibitor
T1 construct: L2/434/Bu, GFP-expressing

Compound | % of control remaining [%]
NC(=O)CSc1nnc(NC(=O)c2ccccc2Cl)s1 [CBK287629] | 129.472
COc1cccc(Nc2cc(-c3ccc(CC(C)C)cc3)ncn2)c1 [CBK090745] | 162.027
CCCc1c(C(=O)NCC(C)(C)CN(C)C)cnn1-c1cc(Cl)cc(Cl)c1 [CBK107381] | 134.183
Cc1noc(C)c1CC(=O)N1CCc2[nH]c3ccccc3c2C1 [CBK281848] | 171.621
N#Cc1ccsc1NC(=O)CN1CCC(CNc2ccccn2)C1 (stereo not drawn) [CBK306117] | 114.465
O=C(/C=C/c1ccccc1)N/C(=C/c1ccccc1)C(=O)Nc1ccc2ccccc2c1 [CBK265023] | 102.901
CCOc1ccccc1-c1ccccc1NC(=O)c1nc2ccccc2n(C)c1=O [CBK285855] | 127.614
O=C(CSc1ncccn1)Nc1cccc(Cl)c1 [CBK058217] | 142.48
COc1ccccc1-c1ncc(OCC(F)(F)F)nc1NC(=O)c1ccco1 [CBK145277] | 62.1183
Cc1cc2c(o1)c1cnn(CC(=O)N3CCCC3)c(=O)c1n2C [CBK284223] | 115.703
O=C(NCCCc1ccc(F)cc1)c1cccc(-n2cnnc2)c1 [CBK282713] | 112.757
Cc1no[n+]([O-])c1COc1cccc(/C=C2\N=C(c3ccccc3)OC2=O)c1 [CBK263454] | 113.919
CC(=O)Nc1ccc(NC(=O)c2cnc(-c3ccc(F)cc3)c(-c3ccco3)c2)cc1 [CBK037977] | 133.246
Cc1ccc(N2C(=O)c3[nH]nc(C)c3C2c2ccc(O)cc2)cc1 (stereo not drawn) [CBK287915] | 58.8996
COc1ccc(/C=C(/NC(=O)/C=C/c2ccccc2)C(=O)O)cc1 [CBK264996] | 100
c1ccc(N2CCN(c3cccc(-c4ccc5c(c4)OCO5)n3)CC2)nc1 [CBK036851] | 138.85
NNC(=O)c1cc(-c2ccccc2)nc2ccc(Br)cc12 [CBK261762] | 109.426
CCn1cc(NC(=S)Nc2sc3c(c2C(=O)OC)CCC(C)C3)c(C(N)=O)n1 (stereo not drawn) [CBK267032] | 132.201
O=C(c1nc(=O)[nH][nH]1)N1CCN(Cc2ccc(C(F)(F)F)cc2)CC1 [CBK298312] | 115.223
CN1CCC(N(C)Cc2cc(Cl)ccc2[N+](=O)[O-])CC1 [CBK261576] | 123.327
O=C(O)C1CCN(C(=O)Nc2ccccc2Cl)CC1 [CBK161407] | 98.6591
O=C(Nc1ccc(Cl)c(Cl)c1)N1CCN(c2n[nH]c(=O)[nH]c2=O)CC1 [CBK297514] | 150.023
O=S(=O)(NCc1ccc(CNS(=O)(=O)c2ccccc2)cc1)c1ccccc1 [CBK265471] | 91.8919
COc1ccc(-n2c(SCC(=O)O)nnc2-c2cccs2)cc1 [CBK265636] | 93.8535
Cc1ccc2[nH]c(Cc3ccc(NC(=O)CCC4C(=O)Nc5ccccc54)cc3)nc2c1 (stereo not drawn) [CBK285824] | 137.291
CCn1ncc(S(=O)(=O)N2CCCC(c3cccc(Cc4cccc(C)c4)n3)C2)c1C (stereo not drawn) [CBK286244] | 97.4223

Copied from the list.
O=S(=O)(NCc1ccc(CNS(=O)(=O)c2ccccc2)cc1)c1ccccc1 [CBK265471] – % of control remaining [%]: 91.8919
CN1CCC(N(C)Cc2cc(Cl)ccc2[N+](=O)[O-])CC1 [CBK261576] – % of control remaining [%]: 123.327

(listing goes on)

Compound | % of control remaining [%]
O=C(O)CCCc1nc(-c2ccccn2)no1 [CBK010880] | 146.214
Nc1ccc(C(=O)Nc2ccc(Nc3cc(-c4ccco4)ncn3)cc2)cc1 [CBK091099] | 112.523
O=C(CC(C(=O)O)n1cnc([N+](=O)[O-])n1)c1ccc(Br)cc1 (stereo not drawn) [CBK267524] | 144.712
CC(C)(C)NC(=O)CN1CCC(c2ccccc2F)CC1 [CBK283499] | 117.421
Cn1cc(C(O)CNC(=O)NCCc2csc3ccccc23)cn1 (stereo not drawn) [CBK305219] | 64.0517
O=C(Nc1ccc(F)cc1)c1[nH]c2ccccc2c1NS(=O)(=O)c1ccc(C(F)(F)F)cc1[N+](=O)[O-] [CBK050090] | 108.746
CCC(Oc1ccccc1)C(=O)Nc1ccccc1-c1ccccc1 (stereo not drawn) [CBK266031] | 73.4163
COc1ccccc1NC(=O)c1ccc(-c2nnc(-c3ccccc3)o2)cc1 [CBK266533] | 144.587
O=C(CSc1nnc(-c2ccco2)n1Cc1ccco1)c1ccc(-c2ccccc2)cc1 [CBK267555] | 152.5
COc1ccccc1-c1cn2ccnc2c(N(C)CCN(C)C)n1 [CBK066156] | 164.439
COc1cccc(CNc2nccc(-n3nc(C)cc3C)n2)c1 [CBK288612] | 145.724
CC1=CC(C)C(CNCCN2CCNCC2)C(C)C1 (stereo not drawn) [CBK262832] | 85.5169
O=C(NC1=NCCS1)c1cc2ccccc2o1 [CBK058927] | 136.354
CCc1c(C)nc2c(NC(C)=O)cccc2c1SCCC(=O)O [CBK159594T] | 122.08
O=C1Nc2cc(C(F)(F)F)ccc2N2CCCC12 (stereo not drawn) [CBK288125] | 153.555
CCN1CCC[C@@H]1CNC(=O)c1n[nH]c2c1CCC2 [CBK174628] | 127.737
O=C1CCCN1c1ccc(CN2CCC(O)(c3ccccc3)C2)cc1 (stereo not drawn) [CBK282808] | 115.255
CC(C)(C)NCC(O)c1ccc(O)c2c1C1CCC2CC1 (stereo not drawn) [CBK013269C] | 141.625
Cc1cc(C)n2nc(CC(=O)N3CCCC3c3ccccn3)nc2n1 (stereo not drawn) [CBK304408] | 157.787
O=S(=O)(Cc1ccccc1)c1cc2c(N3CCNCC3)nccc2s1 [CBK200017C] | 111.673
CCOC(NC(=O)Nc1ccc(Br)cc1)(C(F)(F)F)C(F)(F)F [CBK027208] | 119.396
CN(CCC#N)S(=O)(=O)c1ccc(Cl)c(Cl)c1 [CBK045396] | 124.62
Cc1ccc(S(=O)(=O)N(C)CC(=O)Nc2ncc(C(F)(F)F)cc2Cl)cc1 [CBK266729] | 134.92
Cn1c(=O)c2c(nc(CN3CCN(Cc4ccccc4)CC3)n2CCCc2ccccc2)n(C)c1=O [CBK269582] | 182.215
CC(C)CN(CC(=O)NC1(c2ccccc2)CCC1)C(=O)N(C)C [CBK062704] | 161.393
O=C(c1ccc(F)cc1)N1CCC(c2cc3cccnc3[nH]2)CC1 [CBK285001] | 137.393

3 entries from above, sorted by molecular weight, largest number first.
Compound | % of control remaining [%]
CCOC(NC(=O)Nc1ccc(Br)cc1)(C(F)(F)F)C(F)(F)F [CBK027208] | 119.396
O=C(CC(C(=O)O)n1cnc([N+](=O)[O-])n1)c1ccc(Br)cc1 (stereo not drawn) [CBK267524] | 144.712
COc1ccc(/C=C(/NC(=O)/C=C/c2ccccc2)C(=O)O)cc1 [CBK264996] | 100

(listing goes on)

Compound | % of control remaining [%]
CCC(=O)N1CCC[C@H]1Cn1nc(-c2ccc(F)cc2)ccc1=O [CBK284253] | 139.262
Cn1ccnc1C1(O)CC2CCC(C1)N2C(=O)Nc1ccccc1F (stereo not drawn) [CBK284178] | 112.766
COc1cccc([C@H]2CN(C(=O)c3ccccc3)[C@@H]3CCN(Cc4ccsc4)C[C@H]23)c1 [CBK285611] | 85.5121
COc1ccccc1CCC(=O)NCc1cnc(SC)n1C [CBK306926] | 159.914
O=C(CNC(=O)c1ccccc1)N/N=C/c1ccc(C(=O)O)cc1 [CBK261976] | 88.7098
CC(C)N(C(=O)c1ccccc1-c1cnc2nncn2c1)C(C)C [CBK306701] | 106.774
CS(=O)(=O)c1ccc(Cn2ccnc(N3CCN(C(=O)c4ccc5occc5c4)CC3)c2=O)cc1 [CBK153777] | 105.761
O=C(Nc1cccnc1N1CCNCC1)c1cc(F)cc(F)c1 [CBK029420T] | 120.222
O=C(O)CCCN1C(=O)C(O)=C(C(=O)c2ccc([N+](=O)[O-])cc2)C1c1ccccc1F (stereo not drawn) [CBK263810] | 85.5102
CN1CCN(C(=O)c2ccc(-c3ccco3)nc2N(C)C)CC1 [CBK106121] | 121.162
O=C(Nc1ccccc1Nc1cc(-c2ccccc2)nn1-c1ccccc1)c1ccc(Br)cc1 [CBK261297] | 60.3232
Cc1cc(C)nc(-n2ncc3c2CC(c2cccs2)CC3=O)n1 (stereo not drawn) [CBK269371] | 125.796
CNc1cc(C(=O)N[C@@H]2CCOC[C@H]2Oc2ccc(CO)cc2)ccn1 [CBK306606] | 134.681
Cc1ccc2nc(C)cc(C(=O)OCc3ccc(C(N)=O)cc3)c2c1 [CBK296676] | 151.334
O=C1C(=CNCCC(c2ccccc2)c2ccccc2)C(=O)c2ccccc21 [CBK262987] | 100
Cc1ccc(-c2cc(C(=O)NCCCN3CCOCC3)c3cc(Cl)ccc3n2)o1 [CBK267737] | 110.961
CC(=O)C1=C(O)C(=O)N(CCCC(=O)O)C1c1ccc(Br)cc1 (stereo not drawn) [CBK286784] | 77.791
CN1CCCN(c2cncc(-c3cc4ccccc4o3)n2)CC1 [CBK065997] | 220.222
Cc1nn(C)c(C)c1NC(=O)c1ncoc1-c1ccc(F)cc1 [CBK282359] | 123.55
O=S(=O)(c1cnc(Cl)c(Br)c1)N1CCC2(CC1)OCCO2 [CBK044070] | 89.9449
CN(CC(=O)NCC1CCN(c2cccc(Cl)c2)C1)Cc1cccnc1 (stereo not drawn) [CBK306761] | 116.842
CS(=O)(=O)c1ccc(CN2C(=O)CC3(CCN(C(=O)c4ccc([N+](=O)[O-])cc4)CC3)C2=O)cc1 [CBK155019] | 129.454
O=c1ccc(-c2ccccc2)nn1CC1CCNCC1 [CBK284203] | 121.296
O=C(C1COc2ccccc2O1)N1CCN(c2ncccn2)CC1 (stereo not drawn) [CBK144502] | 91.5455
O=C(N/N=C\c1c(F)cccc1Cl)c1ccncc1 [CBK023263] | 171.482
COc1ccccc1-c1nccnc1N[C@H]1CCN(Cc2ccccc2)C1 [CBK037626] | 164.359
